Test: Example 4: change in rubber hardness and volume of elastomer exposed to base oil
Settings: seven days at 85° C.

CCCCCCCC/C=C\CCCCCCCC(=O)OCC(CC)CCCC (stereo not drawn) [2-ethylhexyl oleate]
Hardness, percent change from the initial unaged value: -11.0% | Volume, percent change from the initial unaged value: 10.2% | effect on the elastomer, in words: undesirable greater swelling and softening effects

Source: patent publication US5627143A, “Wellbore fluid” (Dowell Schlumberger Incorporated, priority 1993, dated 1997)
